In patent publication US20250051474A1, “ANTI-CD97 ANTIBODIES AND ANTIBODY-DRUG CONJUGATES” (New York University, priority 2023, published 2025):
Positions count from the first letter of the chain named. No constants are given. Whether binding was seen depends on the method and setting. Some binding calls cover weakened binding; strength is not graded here.

Chains of the proteins cited; added tags and fusions are not shown. Residues count along the entry.
UniProt P48960, residues 21-835: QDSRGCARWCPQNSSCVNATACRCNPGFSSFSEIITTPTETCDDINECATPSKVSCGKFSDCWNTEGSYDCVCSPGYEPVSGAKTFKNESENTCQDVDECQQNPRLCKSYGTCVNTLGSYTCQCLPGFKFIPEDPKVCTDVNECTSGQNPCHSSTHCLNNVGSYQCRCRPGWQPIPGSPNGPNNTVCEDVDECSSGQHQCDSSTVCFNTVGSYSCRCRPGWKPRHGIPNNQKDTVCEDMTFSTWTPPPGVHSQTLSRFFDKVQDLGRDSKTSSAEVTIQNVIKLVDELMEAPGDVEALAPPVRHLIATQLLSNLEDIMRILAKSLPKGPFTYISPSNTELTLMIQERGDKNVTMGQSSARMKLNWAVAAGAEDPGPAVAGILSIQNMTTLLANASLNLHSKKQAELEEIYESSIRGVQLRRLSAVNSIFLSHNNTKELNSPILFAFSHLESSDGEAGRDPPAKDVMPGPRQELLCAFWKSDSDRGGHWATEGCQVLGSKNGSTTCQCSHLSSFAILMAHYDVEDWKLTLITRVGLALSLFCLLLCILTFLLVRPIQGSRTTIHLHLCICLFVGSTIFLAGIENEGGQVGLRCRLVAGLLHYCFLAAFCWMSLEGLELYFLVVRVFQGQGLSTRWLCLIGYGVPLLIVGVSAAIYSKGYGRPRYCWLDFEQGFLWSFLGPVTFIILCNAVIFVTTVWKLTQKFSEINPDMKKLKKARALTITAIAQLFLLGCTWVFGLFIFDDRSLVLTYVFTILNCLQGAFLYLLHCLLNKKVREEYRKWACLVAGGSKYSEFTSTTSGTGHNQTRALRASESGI

T1: EMR2 (EGF-like module-containing mucin-like hormone receptor-like 2) isoform 4 ectodomain, purified and biotinylated (UniProt Q9UHX3)
T1 sequence (biotinylated in vitro using the BirA enzyme, looked up): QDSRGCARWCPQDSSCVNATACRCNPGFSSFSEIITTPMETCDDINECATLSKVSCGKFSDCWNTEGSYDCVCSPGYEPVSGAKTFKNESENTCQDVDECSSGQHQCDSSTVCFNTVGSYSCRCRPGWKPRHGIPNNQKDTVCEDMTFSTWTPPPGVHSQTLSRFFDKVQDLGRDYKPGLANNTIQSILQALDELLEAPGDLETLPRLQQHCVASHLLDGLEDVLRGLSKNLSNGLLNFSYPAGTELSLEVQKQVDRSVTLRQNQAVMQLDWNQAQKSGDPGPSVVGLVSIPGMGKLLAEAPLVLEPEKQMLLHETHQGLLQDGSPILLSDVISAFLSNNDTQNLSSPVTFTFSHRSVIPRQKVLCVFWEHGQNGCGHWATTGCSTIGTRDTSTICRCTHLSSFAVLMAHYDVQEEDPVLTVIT

B1: Fab B34 (Fab, V domains shown)
VH: EVQLVESGGGLVQPGGSLRLSCAASGFTVSYSSIHWVRQAPGKGLEWVASIYSSSGYTSYADSVKGRFTISADTSKNTAYLQMNSLRAEDTAVYYCARSYYRYYLSPIYWGSWGMDYWGQGTLVTVSS
VL: DIQMTQSPSSLSASVGDRVTITCRASQSVSSAVAWYQQKPGKAPKLLIYSASSLYSGVPSRFSGSRSGTDFTLTISSLQPEDFATYYCQQSGYYGHLITFGQGTKVEIKR
notes: first discovery campaign; also called Antibody Clone B34
B2: Fab B3 (Fab, V domains shown)
VH: EVQLVESGGGLVQPGGSLRLSCAASGFTFSSSSIHWVRQAPGKGLEWVASISPYSGYTSYADSVKGRFTISADTSKNTAYLQMNSLRAEDTAVYYCARAYYYWSHWYMHYVSYPGGMDYWGQGTLVTVSS
VL: B1 VL with S91L, G92R, Y93H, G95S
notes: first discovery campaign; also called Antibody Clone B3
B3: Fab A1 (Fab, V domains shown)
VH: EVQLVESGGGLVQPGGSLRLSCAASGFTISSSSIHWVRQAPGKGLEWVASIYSYYGSTYYADSVKGRFTISADTSKNTAYLQMNSLRAEDTAVYYCARPVYGQLGYWTQRWSGMDYWGQGTLVTVSS
VL: B1 VL with S91Y, G92S, Y93W, Y94S, G95S, H96Y
notes: first discovery campaign; also called Antibody Clone A1
B4: Fab B25 (Fab, V domains shown)
VH: EVQLVESGGGLVQPGGSLRLSCAASGFTISSSSIHWVRQAPGKGLEWVASISSYSGSTSYADSVKGRFTISADTSKNTAYLQMNSLRAEDTAVYYCARSFFKYYLWYGYHNYWSAIDYWGQGTLVTVSS
VL: DIQMTQSPSSLSASVGDRVTITCRASQSVSSAVAWYQQKPGKAPKLLIYSASSLYSGVPSRFSGSRSGTDFTLTISSLQPEDFATYYCQQSSSSLITFGQGTKVEIKR
notes: first discovery campaign; also called Antibody Clone B25
B5: Fab B20 (Fab, V domains shown)
VH: EVQLVESGGGLVQPGGSLRLSCAASGFTISSSSIHWVRQAPGKGLEWVASISSSSGSTSYADSVKGRFTISADTSKNTAYLQMNSLRAEDTAVYYCARIRHYHWYEIPYWDWAIDYWGQGTLVTVSS
VL: B4 VL
notes: first discovery campaign; also called Antibody Clone B20
B6: Fab B23 (Fab, V domains shown)
VH: EVQLVESGGGLVQPGGSLRLSCAASGFTVSSSSIHWVRQAPGKGLEWVASIYPYSGSTSYADSVKGRFTISADTSKNTAYLQMNSLRAEDTAVYYCARSLGWHRHYNYYFYFYANAIDYWGQGTLVTVSS
VL: DIQMTQSPSSLSASVGDRVTITCRASQSVSSAVAWYQQKPGKAPKLLIYSASSLYSGVPSRFSGSRSGTDFTLTISSLQPEDFATYYCQQYWGSDPITFGQGTKVEIKR
notes: first discovery campaign; also called Antibody Clone B23
B7: Fab C14 (Fab, V domains shown)
VH: EVQLVESGGGLVQPGGSLRLSCAASGFTVSSSSIHWVRQAPGKGLEWVASIYSYSGSTSYADSVKGRFTISADTSKNTAYLQMNSLRAEDTAVYYCARSFGWGQSFYYSHYFYITAFDYWGQGTLVTVSS
VL: B6 VL with G93H, S94E, D95S, P96L
notes: first discovery campaign; also called Antibody Clone C14
B8: Antibody clone 2V10, human IgG1 LALA-PG format (antibody, V domains shown)
VH: EVQLVESGGGLVQPGGSLRLSCAASGFTISSSSIHWVRQAPGKGLEWVAYIYPSSGSTSYADSVKGRFTISADTSKNTAYLQMNSLRAEDTAVYYCARPWYYSTFNKKWWDYQGLDYWGQGTLVTVSS
VL: B4 VL with S92W, S93W, S94D, L95P
B9: Fab D25 (Fab, V domains shown)
VH: EVQLVESGGGLVQPGGSLRLSCAASGFTFSSSSIHWVRQAPGKGLEWVASISPYYGSTSYADSVKGRFTISADTSKNTAYLQMNSLRAEDTAVYYCARKLEWGMFFWSPYFRALDYWGQGTLVTVSS
VL: B4 VL
notes: first discovery campaign; also called Antibody Clone D25
B10: Fab D9 (Fab, V domains shown)
VH: EVQLVESGGGLVQPGGSLRLSCAASGFTVSSSSIHWVRQAPGKGLEWVASISSYYGYTSYADSVKGRFTISADTSKNTAYLQMNSLRAEDTAVYYCARYPMFSYYYWYYGMDYWGQGTLVTVSS
VL: B4 VL with S93G, S94Y, L95P, I96V
notes: first discovery campaign; also called Antibody Clone D9
B11: Fab D12 (Fab, V domains shown)
VH: B5 VH with I29F
VL: B4 VL
notes: first discovery campaign; also called Antibody Clone D12

These binders were tested against T1, EMR2 (EGF-like module-containing mucin-like hormone receptor-like 2) isoform 4 ectodomain, purified and biotinylated (assay: bead-based binding titration (biotinylated antigen on streptavidin beads, flow cytometry)).

binding | Binder
no binding (tested: 50 nM) | B1
no binding (tested: 50 nM) | B2
no binding (tested: 50 nM) | B3
no binding (tested: 50 nM) | B4
no binding (tested: 50 nM) | B5
no binding (tested: 50 nM) | B6
no binding (tested: 50 nM) | B7

These binders were tested against E1-E5-GAIN (human) (UniProt P48960) (assay: staining of ExpiCHO cells expressing the CD97 construct, gated on expression tag, flow cytometry).

binding | Binder
binds | B8

The binders below were run against T1, EMR2 (EGF-like module-containing mucin-like hormone receptor-like 2) isoform 4 ectodomain, purified and biotinylated (assay: bead-based binding titration (biotinylated antigen on streptavidin beads, flow cytometry) [Continued]).

binding | Binder
no binding (tested: 300 nM) | B9
no binding (tested: 50 nM) | B10
no binding (tested: 50 nM) | B11
